## Library screening results

Results are given as percent effect. The record does not define 0% and 100%; most values in the screen are far below 50% and negative numbers occur (in some assays of this library far below -100). This is an unselected part of the compounds tested.

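Whole-cell assay for inhibitors of Mycobacterium tuberculosis growth, labelled Cornell in the record; the read-out is not stated. The concentration is filed as 10 mM, unlikely as a test dose, so the dose is not known. The record gives no direction; compounds strong in two other growth screens of this library score well above the rest, so higher reads as stronger inhibition. About 53,000 compounds were tested under these conditions; 1.7% (about 900) showed 50% or more at least once.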

{"structure": "Cc1ccccc1C(=O)N1CCC2(CCC(C(=O)NCC3CC3)O2)CC1", "stereo": "centres unmarked", "Percent Effect": 10.37}
{"structure": "Cc1cccc(C)c1OC1CN(C(=O)C2CCCN(C(=O)N(C)C)C2)C1", "stereo": "centres unmarked", "Percent Effect": 3.594}
{"structure": "COc1cc(S(=O)(=O)N2CCc3ccccc32)cc(C(=O)O)c1OC", "Percent Effect": -12.19}
{"structure": "CC(C)(C)C(O)CN1CCN(C(=O)c2cccc3ncccc23)CC1", "stereo": "centres unmarked", "Percent Effect": -9.757}
{"structure": "CN(CCc1ccccn1)C(=O)c1ccccc1F", "Percent Effect": 9.171}
{"structure": "Cc1nc(NCC2CC2)nc2c1COCC21CCN(C(=O)NC(C)C)C1", "stereo": "centres unmarked", "Percent Effect": 10.68}
{"structure": "CN1CCN(C(=O)c2nc3c(o2)CN(C(=O)c2cccnc2)C3)CC1.O=C(O)C(F)(F)F.O=C(O)C(F)(F)F", "Percent Effect": 17.68}
{"structure": "NC(=O)CNC(=O)c1ccc(CNCc2ccc(Cl)cc2Cl)cc1", "Percent Effect": -46.58}
{"structure": "Cc1nc(C)n(CC2CCCN(Cc3ncc(C(C)(C)C)o3)C2)n1", "stereo": "centres unmarked", "Percent Effect": -25.07}
{"structure": "CC(C)c1nc(C2CCCN(C(=O)CCn3cncn3)C2)no1", "stereo": "centres unmarked", "Percent Effect": 11.23}
{"structure": "CS(=O)(=O)CCN(CC1CCCO1)C1CCCC1", "stereo": "centres unmarked", "Percent Effect": -43.07}
{"structure": "NC(=O)N1CCCN(C2CCc3ccc(F)cc32)CC1", "stereo": "centres unmarked", "Percent Effect": 1.541}
{"structure": "CC(C)NS(=O)(=O)c1cc(C(=O)O)cc(-c2ccc3c(c2)OCO3)c1", "Percent Effect": 8.901}
{"structure": "Cc1cs/c(=N/C(=O)c2csc(NCC(C)C)n2)[nH]1", "Percent Effect": 104.8}
{"structure": "CN1CCOC(CN(C(=O)COc2ccccc2)c2nccs2)C1", "stereo": "centres unmarked", "Percent Effect": 31.31}
{"structure": "NCC1CCN(c2cnn(CCCn3cccn3)c(=O)c2)CC1", "Percent Effect": 31.5}
{"structure": "CNC(=O)N1CCC(NC(=O)c2cnn(C)c2)CC1", "Percent Effect": -62.19}
{"structure": "Cc1nc(N)nc(N2CCOc3ccc(CO)cc3C2)c1C", "Percent Effect": 17.7}
{"structure": "COc1ccnc(N2CCCN(C(=O)CCc3cnn(C)c3)CC2)n1", "Percent Effect": 11.7}
{"structure": "Cn1cnnc1C1CCCN1C(=O)Nc1cccc(OC(F)F)c1", "stereo": "centres unmarked", "Percent Effect": 33.64}
{"structure": "Cc1ncc(S(C)(=O)=O)c(N2CCCN(Cc3ccccn3)CC2)n1", "Percent Effect": -26.03}
{"structure": "CC(C)CCN(C)C(=O)c1nc(S(C)(=O)=O)n2ccccc12", "Percent Effect": 20.39}
{"structure": "O=C(CSc1nc2c(cnn2CCO)c(=O)[nH]1)NC1CCCCC1", "Percent Effect": -15.01}
{"structure": "O=C(O)C(F)(F)F.O=C1COC2(CCN(S(=O)(=O)C3CC3)CC2)CN1c1cccnc1", "Percent Effect": -11.56}
{"structure": "[H][C@@]12COC[C@]1([H])[C@@H](OCC1CCN(C)CC1)CN2Cc1ccc(C)o1", "Percent Effect": 9}
{"structure": "Cc1cnn(CC2CCCN2C(=O)c2cccnc2-n2cncn2)c1", "stereo": "centres unmarked", "Percent Effect": 4.065}
{"structure": "Cc1cc(C2CCC2)nc(NCCC23CCCN2CCC3)n1", "Percent Effect": 22.79}
{"structure": "c1cnc(N2CCc3onc(CN4CCCC4)c3C2)cn1", "Percent Effect": -32.51}
{"structure": "O=C(COc1ccc(-c2ccccc2)nc1)NCC1CC1", "Percent Effect": 18.89}
{"structure": "CCN1CCN(C2CCN(Cc3c(C)noc3C)CC2)C1=O", "Percent Effect": -4.451}
{"structure": "CC(c1ccon1)N(C)C(=O)C1CCN(CC(N)=O)CC1", "stereo": "centres unmarked", "Percent Effect": 12.73}
{"structure": "CCc1cc(NCC(O)CN2CCCCC2)ncn1", "stereo": "centres unmarked", "Percent Effect": 3.474}
{"structure": "COc1ccccc1N(C)Cc1nc2c(cnn2C)c(=O)[nH]1", "Percent Effect": -19.41}
{"structure": "COCCN1CCOCC12CCN(c1ccc(C#N)cc1)CC2.O=C(O)C(F)(F)F", "Percent Effect": -4.418}
{"structure": "Cc1ncc(COc2cccc3c2NC(=O)CO3)s1", "Percent Effect": -6.936}
{"structure": "[H][C@@]12CCN(c3ncccn3)C[C@]1([H])[C@@H](CNC(=O)c1ccnnc1)OC2", "Percent Effect": -8.045}
{"structure": "C[C@H](NC(=O)c1cccc(CCC(C)(C)O)c1)C(N)=O", "Percent Effect": -19.18}
{"structure": "O=C(O)CC(O)(CC(=O)O)C(=O)O.[H][C@@]12CC[C@@](O)(c3ccc(C)cn3)[C@]1([H])CN(Cc1cccc(F)c1F)C2", "Percent Effect": -20.35}

For reference, 5 entries once more:

structure	Percent Effect
NCC1CCN(c2cnn(CCCn3cccn3)c(=O)c2)CC1	31.5%
Cn1cnnc1C1CCCN1C(=O)Nc1cccc(OC(F)F)c1 (centres unmarked)	33.64%
C[C@H](NC(=O)c1cccc(CCC(C)(C)O)c1)C(N)=O	-19.18%
CC(C)(C)C(O)CN1CCN(C(=O)c2cccc3ncccc23)CC1 (centres unmarked)	-9.757%
Cc1nc(NCC2CC2)nc2c1COCC21CCN(C(=O)NC(C)C)C1 (centres unmarked)	10.68%

Measurements from “University of Dundee, Small-Polar-MMV Screening Library” (2021), ChEMBL document CHEMBL3988442.